# Data source: PubChem BioAssay AID1259308 (NCATS, 2017)
# Assay: 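Candidate targets for better recombinant protein yield in mammalian cells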 (primary screen)
# Cells: human HEK293 embryonic kidney cells stably expressing firefly luciferase (HEK-CMV-Luc2-Hygro)
# Reagent: single siRNA against human genes, 0.8 pmol siRNA per well
# Duration: 72 h
# Detection: 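Luciferase light (ONE-Glo) measured on one replicate plate set and viability (CellTiter-Glo) on the other, scaled to a negative control siRNA, with robust z-scores and luciferase per cell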
# Reading the numbers: total luciferase, z-score and total luciferase, % of control: higher = more reporter protein produced; luciferase per cell, z-score: higher = more reporter output per viable cell; viable cells, % of control: higher = more viable cells
# Rule for the call: 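Active when the median/MAD z-score for overall luciferase is greater than 3; a gene was taken forward for validation with new siRNAs if at least two of its three siRNAs passed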
# Meaning of the calls: active = raised luciferase; inactive = no rise
# Shown is an unselected part of about 59,000 reagents tested. Of all reagents, about 1,510 (2.6%) are marked active. 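Calls use total luciferase alone and ignore viability, so some active siRNAs may act by altering cell number.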
target gene,PubChem SID,"total luciferase, z-score","total luciferase, % of control","luciferase per cell, z-score","viable cells, % of control",call
FAM86B2 (family with sequence similarity 86 member B2),SID160726383,1.6,114,1.79,79.2,inactive
FAM86B2 (family with sequence similarity 86 member B2),SID160726384,-0.107,79.8,-1.05,117,inactive
FAM86B2 (family with sequence similarity 86 member B2),SID160770984,-2.06,40.8,-2.14,80.1,inactive
DHRS11 (dehydrogenase/reductase 11),SID160748707,0.867,99.1,0.938,86.5,inactive
DHRS11 (dehydrogenase/reductase 11),SID160748708,-0.367,74.6,-0.642,98.7,inactive
DHRS11 (dehydrogenase/reductase 11),SID160748709,-0.721,67.5,-0.146,78.4,inactive
SNAPC3 (small nuclear RNA activating complex polypeptide 3),SID160717094,-0.401,73.9,-0.102,84.8,inactive
SNAPC3 (small nuclear RNA activating complex polypeptide 3),SID160717095,-0.266,76.6,-0.363,94.2,inactive
SNAPC3 (small nuclear RNA activating complex polypeptide 3),SID160717096,0.639,94.6,0.276,98.3,inactive
RFC1 (replication factor C subunit 1),SID160715815,-0.246,77,-0.171,90,inactive
RFC1 (replication factor C subunit 1),SID160715816,0.804,97.9,0.828,87.9,inactive
RFC1 (replication factor C subunit 1),SID160731653,-0.313,75.7,-0.384,93.6,inactive
COX7B (cytochrome c oxidase subunit 7B),SID160730605,-1.43,53.4,-0.833,74.3,inactive
COX7B (cytochrome c oxidase subunit 7B),SID160747009,-2.44,33.3,-2.84,78.6,inactive
COX7B (cytochrome c oxidase subunit 7B),SID160747018,-0.714,67.7,-1.02,99,inactive
MMP16 (matrix metallopeptidase 16),SID160777367,0.82,98.2,0.182,105,inactive
MMP16 (matrix metallopeptidase 16),SID160777368,-0.476,72.4,-0.53,93.1,inactive
MMP16 (matrix metallopeptidase 16),SID160777369,1.53,112,1.75,79.2,inactive
"B4GALT6 (beta-1,4-galactosyltransferase 6)",SID160721963,-0.15,78.9,-0.722,107,inactive
"B4GALT6 (beta-1,4-galactosyltransferase 6)",SID160721964,-0.588,70.2,-1.25,109,inactive
"B4GALT6 (beta-1,4-galactosyltransferase 6)",SID160721965,0.569,93.2,0.399,93.8,inactive
EGF (epidermal growth factor),SID160758710,-1,61.9,-1.47,102,inactive
EGF (epidermal growth factor),SID160758722,0.384,89.5,-0.0681,102,inactive
EGF (epidermal growth factor),SID160758732,0.0587,83.1,-0.388,103,inactive
IL6R (interleukin 6 receptor),SID160775724,0.702,95.8,0.548,92.7,inactive
IL6R (interleukin 6 receptor),SID160775725,-1.64,49.2,-0.932,70.3,inactive
IL6R (interleukin 6 receptor),SID160775726,-0.527,71.4,0.0116,79.6,inactive
LRRC40 (leucine rich repeat containing 40),SID160743952,1.2,106,0.853,94.5,inactive
LRRC40 (leucine rich repeat containing 40),SID160743953,-0.196,78,-0.478,98.8,inactive
LRRC40 (leucine rich repeat containing 40),SID160743954,2.34,128,1.37,100,inactive
KDM4D (lysine demethylase 4D),SID160744103,3.38,149,1.43,114,active
KDM4D (lysine demethylase 4D),SID160744104,0.478,91.4,0.466,90.4,inactive
KDM4D (lysine demethylase 4D),SID160744105,1.36,109,0.24,114,inactive
CYFIP2 (cytoplasmic FMR1 interacting protein 2),SID160738232,0.338,88.6,-0.131,102,inactive
CYFIP2 (cytoplasmic FMR1 interacting protein 2),SID160738233,-0.203,77.8,-0.011,87.2,inactive
CYFIP2 (cytoplasmic FMR1 interacting protein 2),SID160738234,0.702,95.8,0.804,86.7,inactive
"PCDHGB1 (protocadherin gamma subfamily B, 1)",SID160744771,0.617,94.2,-0.0879,108,inactive
"PCDHGB1 (protocadherin gamma subfamily B, 1)",SID160744772,-2.24,37.3,-1.9,68.6,inactive
"PCDHGB1 (protocadherin gamma subfamily B, 1)",SID160744775,2.09,123,2.36,74.1,inactive
TASOR2 (transcription activation suppressor family member 2),SID160742467,-0.0773,80.3,-0.0102,90,inactive
TASOR2 (transcription activation suppressor family member 2),SID160742468,0.483,91.5,0.476,90.2,inactive
TASOR2 (transcription activation suppressor family member 2),SID160742470,-1.06,60.9,-1.46,99.8,inactive
AP3B1 (adaptor related protein complex 3 subunit beta 1),SID160720303,-0.0408,81.1,0.0829,88.6,inactive
AP3B1 (adaptor related protein complex 3 subunit beta 1),SID160720304,-0.4,73.9,-0.437,92.7,inactive
AP3B1 (adaptor related protein complex 3 subunit beta 1),SID160720305,0.899,99.8,0.963,86.5,inactive
SKINT1L (Skint1 like (pseudogene)),SID160733265,1.52,112,1,96.3,inactive
SKINT1L (Skint1 like (pseudogene)),SID160766623,-0.222,77.5,1.04,65.9,inactive
SKINT1L (Skint1 like (pseudogene)),SID160766624,-1.2,57.9,-0.619,76.2,inactive
CDC7 (cell division cycle 7),SID160719846,0.181,85.5,0.734,78.7,inactive
CDC7 (cell division cycle 7),SID160719847,0.489,91.6,0.371,92.8,inactive
CDC7 (cell division cycle 7),SID160719848,-0.843,65.1,-0.326,79.3,inactive
DHX9-AS1 (DHX9 antisense RNA 1),SID160770123,-0.726,67.4,0.145,72.5,inactive
DHX9-AS1 (DHX9 antisense RNA 1),SID160770124,-1.38,54.5,-1.43,88.7,inactive
DHX9-AS1 (DHX9 antisense RNA 1),SID160770125,-1.24,57.3,-1.68,99.8,inactive
POF1B (POF1B actin binding protein),SID160749905,0.472,91.3,0.498,89.5,inactive
POF1B (POF1B actin binding protein),SID160749907,0.298,87.8,-0.0998,101,inactive
POF1B (POF1B actin binding protein),SID160749908,-2.01,41.8,-1.94,77.9,inactive
